Measured values reported in PubChem BioAssay AID485314 (National Center for Advancing Translational Sciences (NCATS), 2010).
Where “and” joins values, the source holds several entries; their conditions need not be identical. Equal entries are not always repeated. Among all 340,000 compounds or so, about 4,500 (1.3%) were called active. The shares of active, inactive and inconclusive entries below differ from those in the screen. Calls follow the shape of the dose curve; as a rule, active = well fitted inhibition curve with a large enough effect; inconclusive = small, poorly fitted or top-dose-only effect, or another doubt; inactive = no such curve, though single readings can be large or run the other way. Where the call is inconclusive, the potency comes from a doubtful curve fit.

The molecules below were run against DNA polymerase beta (Homo sapiens) (UniProt P06746) (assay: qHTS Assay for Inhibitors of DNA Polymerase Beta). Conditions: Pol beta primer extension/strand displacement, fluorescence kinetic; activity change, negative = inhibition: at 114 µM (top of the series).
How it was run: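 Kinetic readout of DNA synthesis with strand displacement by Pol beta. Compound and 10 nM enzyme sit 15 min at room temperature; 50 nM substrate starts the reaction, read immediately and at 10 min.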
% is scaled to controls: 0 for no effect and ±100 for the full control effect; potency is read from the fitted curve at half-maximal effect.

Potency, active:
O=C(/C=C/c1ccccc1)NCCc1ccccc1 25.1 µM
Cc1csc(N2CCN(c3cc4nc(-c5ccncc5)[nH]c4cc3Cl)CC2)n1 35.5 µM
N#C/C(=C\c1ccc(OCc2ccc(Br)cc2)cc1)C(=O)Nc1cccc(C(=O)O)c1 8.91 µM
O=C(COC(=O)c1ccc(Br)o1)Nc1nc2c(F)c(F)c(F)cc2s1 11.2 µM
O=C(Nc1ccc2oc(-c3ccncc3)nc2c1)c1cccs1 22.4 µM
CC1(C)NC(=O)N(CN2C(=O)NC(C)(C)C2=O)C1=O 79.4 µM
COc1ccc(C(=O)CSc2ccc(-c3ccco3)nn2)cc1 14.1 µM
CCCn1c(SCC(=O)Nc2nnc(-c3ccccc3)s2)nnc1-c1ccccn1 22.4 µM
CC1CCC2(CC1)NC(=O)N(CC(=O)Nc1sc3c(c1C(N)=O)CCC3)C2=O (stereo unspecified) 5.01 µM

Potency, inactive:
Cc1cc(C)c(OCC(=O)Nc2nnc(-c3ccco3)o2)c(C)c1
COc1ccc(-c2c(C#N)c(SCC(=O)Nc3ccc(C)c(C)c3)nc(C)c2C(=O)Nc2ccccc2)cc1OC
Cc1nnc(SCc2nc3sc(C(=O)O)c(C)c3c(=O)[nH]2)s1
COc1cc2c(cc1NC(=O)CSc1nc3ccccc3[nH]1)oc1ccccc12
Cc1ccc(Cl)cc1N1CCN(C(=O)c2ccc3c(c2)N(Cc2ccc(F)cc2)CCS3)CC1
CCN1C(=O)c2ccccc2S(=O)c2ccc(C(=O)N3CCN(c4cc(Cl)ccc4C)CC3)cc21 (stereo unspecified)
CCOc1ccc(CCNC(=O)C2=C(C)C(=O)OC23CCCCC3)cc1
CCc1ccccc1NC(=O)c1cnc(N2CCCCC2)c2ccccc12
Oc1c(C=NCc2ccccc2)sc2ccccc12
Cc1cccc(CNC(=O)CS(=O)(=O)c2cccc3nsnc23)c1
CCN(C(=O)c1cnc2ccc(C)cn2c1=O)c1ccccc1
CCn1cc(C(=O)NC(C)C)c(=O)c2cc(F)c(N3CCN(C(=O)c4ccco4)CC3)cc21
Cn1cnnc1Sc1ccc(/C=C(\CCC(=O)O)c2nc3ccccc3s2)cc1[N+](=O)[O-]
CCCN(C(=O)Cn1cnc2onc(-c3ccc(F)cc3)c2c1=O)c1cccc(Cl)c1

Potency, inconclusive:
COc1cccc(/C=N/Nc2nn3cnnc3c3ccccc23)c1 10 µM [inhibitor, partial curve]
O=[N+]([O-])c1cc(Cl)ccc1Sc1ccccn1 2.51 µM [inhibitor, partial curve, poor fit]
CCOC(=O)C1(CCOc2ccccc2)CCN(C(=O)c2ccc(-n3cccn3)cc2)CC1 3.16 µM [inhibitor, full curve, poor fit]
Cc1ccc(/C=N/Nc2cccc(C(=O)O)c2)s1 39.8 µM [inhibitor, single point]
COC(=O)Cn1cc(/C=N/NC(=O)COc2cccc3cccnc23)c2ccccc21 25.1 µM [inhibitor, full curve, poor fit]
COc1ccc(Br)c(C(=O)NCC2CCCCC2)c1 5.01 µM [inhibitor, single point]
CN(C)c1ccc(/C=N/NC(=O)c2ccc3nc[nH]c3c2)cc1 5.01 µM [inhibitor, full curve, poor fit]
CCOc1cc([N+](=O)[O-])cc2c1C(=O)Nc1ccccc1O2 15.8 µM [inhibitor, partial curve, poor fit]
O=C(CSCC(=O)OCC(=O)c1ccc(Br)cc1)Nc1ccc(Br)cc1 25.1 µM [inhibitor, partial curve, poor fit]
Cc1cccc(NC(=O)N2CC(=O)Nc3sc4c(c3C2c2ccccc2)CCCC4)c1C (stereo unspecified) 89.1 µM [inhibitor, single point]
Cc1cc(C)cc(NC(=O)Cn2nnc(C(=O)NCc3ccc(F)cc3)c2N)c1 89.1 µM [inhibitor, single point]
CCC(Sc1nc(-c2ccccc2F)nc2c1Cc1c(CO)cnc(C)c1O2)C(=O)Nc1cc(C)ccc1C (stereo unspecified) 10 µM [inhibitor, full curve]
CCOC(=O)c1c(N)sc(C(O)(C(F)(F)F)C(F)(F)F)c1-c1ccc(Cl)cc1 8.91 µM [inhibitor, partial curve, poor fit]
COc1cccc(Nc2nc(-c3sc(N)nc3C)cs2)c1 39.8 µM [inhibitor, single point]
COc1cc2c(cc1OC)C1O[C@](c3ccsc3)(C2)Oc2c1c(=O)oc1ccc(F)cc21 0.282 µM [inhibitor, full curve, poor fit]
COc1cc(/C=C(\C#N)c2nc3ccccc3[nH]2)cc(OC)c1O 39.8 µM [inhibitor, partial curve]
Cc1ccc(Cl)cc1N1CCN(C(=O)c2ccc(CS(=O)(=O)c3ccccc3C)o2)CC1 89.1 µM [inhibitor, single point]
CCOc1ccc(/C=N/NC(=O)CC(=O)Nc2ccc(Cl)c(Cl)c2)cc1 56.2 µM [inhibitor, partial curve, poor fit]
COc1cc(C2CC(=O)Oc3c2c(=O)n(C)c2ccccc32)ccc1O (stereo unspecified) 17.8 µM [inhibitor, full curve, poor fit] and 15.8 µM [inhibitor, full curve]
CCCCNC(c1ccccc1)c1ccncc1 (stereo unspecified) 0.224 µM [inhibitor, full curve]
COc1ccc(C(=O)NC2(C(F)(F)F)C(=O)Nc3c2c(=O)[nH]c(=O)n3CCc2ccc(OC)c(OC)c2)cc1 (stereo unspecified) 0.141 µM [inhibitor, full curve, poor fit]
COc1ccc(-c2csc(N)n2)cc1 89.1 µM [inhibitor, single point]
CN(C)CCCNC(=O)c1ccc(-c2nc(-c3ccc(Cl)cc3)cs2)cc1 56.2 µM [inhibitor, partial curve]
COc1ccc(N2CCN(C(=O)c3ccc(Cn4c(=S)[nH]c5ccc(N6CCOCC6)cc5c4=O)cc3)CC2)cc1 89.1 µM [inhibitor, single point]
Cc1cc(C)c(C(=O)CSc2nnc(N)s2)c(C)c1 39.8 µM [inhibitor, single point]
Cc1ccc(SC(C)C(=O)Nc2ccc(S(=O)(=O)N3CCOCC3)cc2)cc1 (stereo unspecified) 0.355 µM [inhibitor, full curve, poor fit]
N#Cc1ccccc1CSc1nc2ccc(NC(=O)c3ccccc3C(=O)O)cc2s1 3.16 µM [inhibitor, full curve]
COc1ccc(Br)cc1CNC(=O)Cn1nc(C)n2cccc2c1=O 56.2 µM [inhibitor, single point]
Cc1nn(C)cc1C(=O)/C=C/c1ccc([N+](=O)[O-])cc1 0.794 µM [inhibitor, full curve, poor fit]
CC(=O)Nc1ccc2c(c1)C(=O)N(c1ccc(C)cc1)C2=O 31.6 µM [inhibitor, single point]
CCSc1nc(-c2ccco2)ccc1C#N 28.2 µM [inhibitor, partial curve, poor fit]
O=C(C1CCC1)N1CCc2cc(S(=O)(=O)NCC3COc4ccccc4O3)ccc21 (stereo unspecified) 0.282 µM [inhibitor, full curve]
O=C(Nc1ncc2c(n1)-c1ccccc1CC2)c1cccc(Cl)c1 2.82 µM [inhibitor, full curve, poor fit]
COc1ccc(Cl)cc1NC(=O)c1sc2nc3n(c(=O)c2c1C)CCC3 39.8 µM [inhibitor, single point]
Cc1cccn2c(=O)c3cc(S(=O)(=O)c4ccc(F)cc4)c(=N)n(Cc4ccco4)c3nc12 8.91 µM [inhibitor, partial curve]
COc1ccc(C(=O)Nc2nnc(SCC(=O)Nc3ccc(NC(C)=O)cc3)s2)c(OC)c1 12.6 µM [inhibitor, partial curve]
CCOC(=O)C1=C(C)N=C2SCCC(=O)N2C1c1ccc(OCc2ccccc2)cc1 (stereo unspecified) 1 µM [inhibitor, single point]
COc1ccccc1Nc1c2ccccc2nc2ccccc12 89.1 µM [inhibitor, single point]
O=C(NCc1ccccc1)C(c1ccc(F)cc1)N(C(=O)c1csnn1)C1CCCC1 (stereo unspecified) 0.126 µM [inhibitor, full curve, poor fit]
COc1cccc(NC(=O)Nc2cccc(-c3cn4cccnc4n3)c2)c1 14.1 µM [inhibitor, full curve, poor fit]
CCOC(=O)C1=C(c2ccccc2)OC(N)=C(C#N)C1c1ccco1 (stereo unspecified) 1 µM [inhibitor, full curve]
CS(=O)(=O)N(CC(=O)Nc1ccccc1-c1ccccc1)c1cccc(F)c1 28.2 µM [inhibitor, single point]

Already shown: 3 of the compounds above.
Potency, inconclusive:
CCOC(=O)C1=C(C)N=C2SCCC(=O)N2C1c1ccc(OCc2ccccc2)cc1 (stereo unspecified) 1 µM [inhibitor, single point]
COc1ccccc1Nc1c2ccccc2nc2ccccc12 89.1 µM [inhibitor, single point]
O=C(NCc1ccccc1)C(c1ccc(F)cc1)N(C(=O)c1csnn1)C1CCCC1 (stereo unspecified) 0.126 µM [inhibitor, full curve, poor fit]

Following part.

Activity change, negative = inhibition, inconclusive:
Cc1cc(C)n(CC(=O)NC2CCCc3c2cnn3-c2ccccc2F)n1 (stereo unspecified) -38.3% [inhibitor]
